Data taken from PubChem BioAssay AID1224904, deposited by Broad Institute (2016).

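Selective DUX4 reporter inhibition in doxycycline-induced 293T-iDUX4 cells, scored as Gaussia percent activity minus Italica percent activity, after a 24-hour treatment.
The test concentration is not given here.
Percent difference between the Gaussia and Italica channels; more negative values mean more selective suppression of the DUX4 reporter, and higher values mean less activity.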

Values are in %.
How 0% and 100% were set is not given here.
Common to all entries: measured here: selective DUX4 reporter inhibition.
This is a side read-out of the assay, for part of the compounds, not drawn at random.

compound: O=C(C[C@H]1CC[C@H]2[C@@H](COC[C@@H](O)CN2C(=O)Nc2ccc(Cl)c(Cl)c2)O1)NCc1ccc(Cl)c(Cl)c1
Gaussia minus Italica difference (%): 1.473

compound: C[C@H](CO)N1C[C@H](C)[C@@H](CN(C)C(=O)NC2CCCCC2)OCc2ccccc2-c2c(n(C)c3ccccc23)C1=O
Gaussia minus Italica difference (%): 6.551

compound: O=C(C1CCCCC1)N1[C@@H](CO)[C@@H](c2ccccc2)C12CN(Cc1cccc(Cl)c1)C2
Gaussia minus Italica difference (%): -7.059

compound: C[C@H]1CN([C@@H](C)CO)C(=O)c2c(c3ccccc3n2C)-c2ccccc2CO[C@@H]1CN(C)S(=O)(=O)c1ccc(C(F)(F)F)cc1
Gaussia minus Italica difference (%): 3.92

compound: Cc1ccc(S(=O)(=O)N2CC[C@@H]3[C@H](CO)N(C)c4ccc(C#Cc5cccnc5)cc4[C@@H]32)cc1
Gaussia minus Italica difference (%): -6.794

compound: CN1c2ccc(-c3cccc(C#N)c3)cc2[C@@H]2[C@@H](CCN2C(=O)Cc2ccccn2)[C@H]1CO
Gaussia minus Italica difference (%): -12.1

compound: OC[C@H]1[C@@H](c2ccc(-c3ccc(F)cc3)cc2)[C@H]2CN(CCC(F)(F)F)CCCCN21
Gaussia minus Italica difference (%): -23.72

compound: O=C(C[C@@H]1CC[C@@H]2[C@H](COC[C@@H](O)CN2Cc2ccc3c(c2)OCO3)O1)Nc1ccc(-c2ccccc2)cc1
Gaussia minus Italica difference (%): -0.6422

compound: C[C@@H](NC(=O)C[C@H]1CC[C@H]2[C@@H](COC[C@H](O)CN2Cc2ccc(C(F)(F)F)cc2)O1)c1ccccc1
Gaussia minus Italica difference (%): -10.49

compound: CN1CCCCN2[C@@H](CO)[C@@H](c3ccc(C#Cc4ccccc4F)cc3)[C@@H]2C1
Gaussia minus Italica difference (%): -17.3

compound: COc1ccc(C#Cc2ccc([C@H]3[C@@H](CO)N4CCCCN(C(=O)Nc5ccccc5)C[C@@H]34)cc2)cc1
Gaussia minus Italica difference (%): 1.724

compound: O=C(C1CCCCC1)N1CC2(C1)[C@H](c1ccccc1)[C@@H](CO)N2Cc1nccs1
Gaussia minus Italica difference (%): -3.198

compound: COc1ccccc1-c1ccc([C@H]2[C@H]3CN(Cc4ccncc4)CCCCN3[C@H]2CO)cc1
Gaussia minus Italica difference (%): -18.11

compound: O=C(c1cccc(F)c1)N1CC2(C1)[C@H](c1ccccc1)[C@H](CO)N2C(=O)C1CCCC1
Gaussia minus Italica difference (%): 4.863

compound: COC(=O)[C@H]1[C@H](CO)[C@H]2Cn3c(ccc(-c4cccc(F)c4)c3=O)[C@H]2N1CC1CCCC1
Gaussia minus Italica difference (%): -5.852

compound: CC(C)CC#Cc1ccc([C@@H]2[C@H]3CN(S(=O)(=O)c4cccc(F)c4)CC(=O)N3[C@H]2CO)cc1
Gaussia minus Italica difference (%): 0.4149

compound: COc1cccc(S(=O)(=O)Nc2ccc3c(c2)[C@H]2C[C@H](CC(=O)NCCc4ccccc4)O[C@@H](CO)[C@H]2O3)c1
Gaussia minus Italica difference (%): -5.411

compound: O=C(C1CC1)N1CCCCN2[C@H](CO)[C@H](c3ccc(C#CC4CCCC4)cc3)[C@@H]2C1
Gaussia minus Italica difference (%): -18.14

compound: COc1ccc2c3c(n(C)c2c1)[C@H](CO)N(CC1CCCC1)CC31CN(C(=O)Nc2ccccc2)C1
Gaussia minus Italica difference (%): -14.29

compound: CN1c2ccc(-c3ccc(F)cc3)cc2[C@H]2[C@H](CCN2C(=O)Nc2ccc(F)cc2)[C@H]1CO
Gaussia minus Italica difference (%): 8.604

compound: C[C@H](CO)N1C[C@H](C)[C@H](CN(C)Cc2cccc(F)c2)OCc2ccccc2-c2ccccc2C1=O
Gaussia minus Italica difference (%): -1.204

compound: C[C@@H](O)C#Cc1ccc([C@@H]2[C@H]3CN(C(=O)Nc4ccccc4)CCCCN3[C@H]2CO)cc1
Gaussia minus Italica difference (%): -6.025

compound: Cc1ccccc1-c1ccccc1[C@H]1[C@@H](C#N)N(C(=O)c2ccccc2)[C@H]1CO
Gaussia minus Italica difference (%): -8.931

compound: CCC(=O)N1CC2(CN(Cc3ccc(Cl)cc3)C2)c2c(n(C)c3cc(OC)ccc23)[C@H]1CO
Gaussia minus Italica difference (%): -6.113

compound: Cc1ccccc1-c1ccc([C@@H]2[C@@H](CO)N3C(=O)CN(C(=O)Cc4ccccn4)C[C@@H]23)cc1
Gaussia minus Italica difference (%): -17.88

compound: C[C@H](O)C#Cc1ccc([C@@H]2[C@H]3CN(C(=O)Nc4ccccc4)CCCCN3[C@H]2CO)cc1
Gaussia minus Italica difference (%): 1.061

compound: O=C(Nc1cccc(F)c1)N1CCCCN2[C@@H](CO)[C@H](c3ccc(C#Cc4cccnc4)cc3)[C@@H]2C1
Gaussia minus Italica difference (%): -18.76

compound: O=C(C[C@H]1CC[C@@H]2[C@H](COC[C@H](O)CN2CCc2ccccc2)O1)NCc1ccc(F)cc1
Gaussia minus Italica difference (%): -10.98

compound: COc1cccc(S(=O)(=O)N2CC[C@@H]3[C@H]2c2cc(Br)ccc2N[C@@H]3CO)c1
Gaussia minus Italica difference (%): 1.83

compound: CN(C)C(=O)c1ccc(-c2ccc3c(c2)[C@@H]2[C@@H](CCN2S(=O)(=O)c2ccccc2)[C@@H](CO)N3)cc1
Gaussia minus Italica difference (%): 13.83

compound: O=C(Nc1ccccc1)N1CCCCN2[C@H](CO)[C@H](c3ccc(C4=CCCCC4)cc3)[C@@H]2C1
Gaussia minus Italica difference (%): -5.8

compound: C/C=C/c1ccc([C@@H]2[C@H](CO)N(CCC(F)(F)F)C23CN(C(=O)CC2CC2)C3)cc1
Gaussia minus Italica difference (%): -11.13

compound: Cc1ccc(OC(=O)N(C)C[C@@H]2OCc3ccccc3-c3c(n(C)c4ccccc34)C(=O)N([C@@H](C)CO)C[C@@H]2C)cc1
Gaussia minus Italica difference (%): 0.08264

compound: OC[C@@H]1[C@@H](c2ccc(C#Cc3cccnc3)cc2)[C@@H]2CN(Cc3ccccc3F)CCCCN12
Gaussia minus Italica difference (%): -9.911

compound: N#C[C@@H]1[C@H](c2ccccc2C2=CCCCC2)[C@H](CO)N1C(=O)NC1CCCC1
Gaussia minus Italica difference (%): -11.75

compound: Cc1cccc(S(=O)(=O)N2C[C@@H]3N[C@H](C2)C3c2ccc(-c3cccnc3)cc2)c1 (stereo partly shown)
Gaussia minus Italica difference (%): -2.864

compound: O=C(Nc1ccc(F)cc1)N1CC(=O)N2[C@H](CO)[C@H](c3ccc(C#Cc4ccccc4)cc3)[C@H]2C1
Gaussia minus Italica difference (%): -7.817

compound: COc1ccccc1CN1C[C@@H]2N[C@H](C1)C2c1ccc(-c2cccc(C#N)c2)cc1 (stereo partly shown)
Gaussia minus Italica difference (%): 2.866

compound: COc1ccccc1CNC(=O)C[C@H]1CC[C@@H]2[C@H](COC[C@H](O)CN2Cc2cccc(-c3ccncc3)c2)O1
Gaussia minus Italica difference (%): -6.075

compound: O=C(C1CCCCC1)N1[C@H](CO)[C@@H](c2ccccc2)C12CN(Cc1cccc(Cl)c1)C2
Gaussia minus Italica difference (%): -24.02

compound: COc1ccccc1NC(=O)Nc1ccc2c(c1)OC[C@@H](C)N(Cc1ccccc1Cl)C[C@@H](C)[C@H](OC)CN(C)C2=O
Gaussia minus Italica difference (%): -4.335

Some entries from above, unchanged:

- O=C(c1cccc(F)c1)N1CC2(C1)[C@H](c1ccccc1)[C@H](CO)N2C(=O)C1CCCC1 | Gaussia minus Italica difference 4.863%
- C[C@H](CO)N1C[C@H](C)[C@@H](CN(C)C(=O)NC2CCCCC2)OCc2ccccc2-c2c(n(C)c3ccccc23)C1=O | Gaussia minus Italica difference 6.551%
- OC[C@H]1[C@@H](c2ccc(-c3ccc(F)cc3)cc2)[C@H]2CN(CCC(F)(F)F)CCCCN21 | Gaussia minus Italica difference -23.72%
- CCC(=O)N1CC2(CN(Cc3ccc(Cl)cc3)C2)c2c(n(C)c3cc(OC)ccc23)[C@H]1CO | Gaussia minus Italica difference -6.113%